This passage reports binding results from patent US20110202000A1.

Amino acid sequences for entries named in this document (tags omitted). Residues count along the entry.
UniProt P05067, residues 672-713: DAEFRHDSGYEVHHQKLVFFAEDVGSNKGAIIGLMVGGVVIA

The target in test [1] is amyloid plaques in the brain (temporal cortex) of a human with Alzheimer's disease (human) (UniProt P05067). The experiment in a line: immunohistochemistry on brain sections (figure legend).
Test [2] shares this target. In words: immunohistochemistry on brain sections, MDT-2007 at 1:10K.

Results are given in words; binding and its absence hold for the method and conditions named. Some results given as binding are weak or reduced against the parent protein; the word gives no strength.

B1: MDT-2007 (composite human antibody sequence variant VH4/VK2) (antibody, V domains shown)
VH: QVQLVQSGAEVKKPGASVKVSCTASGFNIKDTYIHWVRQARGQRLEWIGRFDPVNVNTRYDSRFRGRVTITSDASTNTAYMELSSLRSEDTAVYYCSRSYYNGRRRFTYWGQGTLVTVSS
VL: DIVMTQSPSSLTASVGDRVTITCKASQSLLSSGNQKNYLTWYQQKPGQPPKLLIYWASIRESGVPDRFTGSGSGTFFTLTISSLQAEDVAVYYCQNDYNYPFTFGQGTKLEIK
As for B1, the binding result in test [1] and in test [2] was “binds” in each case.
